# The other results are listed elsewhere or left out.
# B1: ArathEULS3 TAP (Arabidopsis thaliana) (protein)
# chain: IDENLYFQGGSMDEKTTGWRGGHVVEGLAGELEQLRARLEHHPQGQREPGGGGSLEITSLYKKAGFMEHHHQHHRHHQRDDGEDDRQSFGVPPPHVDAPPQPHGLYQSQPHFDPYAPTPQAPAPYRSETQFEPHAPPPYRSEPYFETPAPPPSFGHVSHVGHQSPNESYPPEHHRYGGYQQPSNSLLESHGDHSGVTHVAHHSSNQPQSSSGVYHKPDENRLPDNLAGLAGRATVKVYSKAEPNYNLTIRDGKVILAPADPSDEAQHWYKDEKYSTKVKDADGHPCFALVNKATGEAMKHSVGATHPVHLIRYVPDKLDESVLWTESKDFGDGYRTIRMVNNTRLNVDAYHGDSKSGGVRDGTTIVLWDWNKGDNQLWKIFPF
# Columns and labels:
# Assay in all cases: glycan array binding signal (z-score within array); higher = stronger binding
# Settings in all cases: glycan notation: IUPAC condensed, linker removed
# [1] = target: Fuc(a1-2)[Gal(a1-4)]Gal(b1-4)GlcNAc
# Outline: (§1)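 Columns mapping to the same glycan were averaged after glycan names were converted to IUPAC-condensed notation. The data come from 3228 arrays in the Consortium for Functional Glycomics database, limited to those with an available protein sequence. Binding is reported as a within-array Z-score averaged across arrays of one protein sequence and across linkers.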
# [2] = target: Fuc(a1-2)[GalNAc(a1-3)]Gal
# Outline: as §1
# [3] = target: Fuc(a1-2)[GalNAc(a1-3)]Gal(b1-3)GalNAc(a1-3)[Fuc(a1-2)]Gal(b1-4)GlcNAc
# Outline: as §1
# [4] = target: Fuc(a1-2)[GalNAc(a1-3)]Gal(b1-3)GalNAc(b1-3)Gal(a1-4)Gal(b1-4)Glc
# Outline: as §1
# [5] = target: Fuc(a1-2)[GalNAc(a1-3)]Gal(b1-3)GlcNAc
# Outline: as §1
# [6] = target: Fuc(a1-2)[GalNAc(a1-3)]Gal(b1-3)GlcNAc(b1-2)Man(a1-3)[Fuc(a1-2)[GalNAc(a1-3)]Gal(b1-3)GlcNAc(b1-2)Man(a1-6)]Man(b1-4)GlcNAc(b1-4)GlcNAc
# Outline: as §1
# [7] = target: Fuc(a1-2)[GalNAc(a1-3)]Gal(b1-3)GlcNAc(b1-2)Man(a1-3)[Fuc(a1-2)[GalNAc(a1-3)]Gal(b1-3)GlcNAc(b1-2)Man(a1-6)]Man(b1-4)GlcNAc(b1-4)[Fuc(a1-6)]GlcNAc
# Outline: as §1
# [8] = target: Fuc(a1-2)[GalNAc(a1-3)]Gal(b1-3)GlcNAc(b1-3)GalNAc
# Outline: as §1
# [9] = target: Fuc(a1-2)[GalNAc(a1-3)]Gal(b1-3)GlcNAc(b1-6)GalNAc
# Outline: as §1
# [10] = target: Fuc(a1-2)[GalNAc(a1-3)]Gal(b1-4)Glc
# Outline: as §1
# [11] = target: Fuc(a1-2)[GalNAc(a1-3)]Gal(b1-4)GlcNAc
# Outline: as §1
# [12] = target: Fuc(a1-2)[GalNAc(a1-3)]Gal(b1-4)GlcNAc(b1-2)Man
# Outline: as §1
# [13] = target: Fuc(a1-2)[GalNAc(a1-3)]Gal(b1-4)GlcNAc(b1-2)Man(a1-3)[Fuc(a1-2)[GalNAc(a1-3)]Gal(b1-4)GlcNAc(b1-2)Man(a1-6)]Man(b1-4)GlcNAc(b1-4)GlcNAc
# Outline: as §1
# [14] = target: Fuc(a1-2)[GalNAc(a1-3)]Gal(b1-4)GlcNAc(b1-2)Man(a1-3)[Fuc(a1-2)[GalNAc(a1-3)]Gal(b1-4)GlcNAc(b1-2)Man(a1-6)]Man(b1-4)GlcNAc(b1-4)[Fuc(a1-6)]GlcNAc
# Outline: as §1
# [15] = target: Fuc(a1-2)[GalNAc(a1-3)]Gal(b1-4)GlcNAc(b1-3)Gal(b1-4)GlcNAc
# Outline: as §1
# [16] = target: Fuc(a1-2)[GalNAc(a1-3)]Gal(b1-4)GlcNAc(b1-3)Gal(b1-4)GlcNAc(b1-3)Gal(b1-4)GlcNAc
# Outline: as §1
# [17] = target: Fuc(a1-2)[GalNAc(a1-3)]Gal(b1-4)GlcNAc(b1-3)GalNAc
# Outline: as §1
# [18] = target: Fuc(a1-2)[GalNAc(a1-3)]Gal(b1-4)GlcNAc(b1-3)[Fuc(a1-2)[GalNAc(a1-3)]Gal(b1-4)GlcNAc(b1-6)]GalNAc
# Outline: as §1
# [19] = target: Fuc(a1-2)[GalNAc(a1-3)]Gal(b1-4)GlcNAc(b1-6)GalNAc
# Outline: as §1
# [20] = target: Fuc(a1-2)[GalNAc(a1-3)]Gal(b1-4)[Fuc(a1-3)]GlcNAc
# Outline: as §1
# [21] = target: Fuc(a1-2)[GalNAc(a1-3)]Gal(b1-4)[Fuc(a1-3)]GlcNAc(b1-3)GalNAc
# Outline: as §1
# [22] = target: Fuc(a1-2)[GalNAc(a1-4)]Gal(b1-4)GlcNAc
# Outline: as §1
# [23] = target: Fuc(a1-2)[GalNAc(b1-3)]Gal
# Outline: as §1
# Fuc(a1-3)GlcNAc = target: Fuc(a1-3)GlcNAc
# Outline: as §1
# [24] = target: Fuc(a1-3)[Gal(b1-4)]Glc6S
# Outline: as §1
# [25] = target: Fuc(a1-3)[Gal(b1-4)]GlcNAc
# Outline: as §1
# [26] = target: Fuc(a1-3)[Gal(b1-4)]GlcNAc(b1-2)Man
# Outline: as §1
# [27] = target: Fuc(a1-3)[Gal(b1-4)]GlcNAc(b1-2)Man(a1-3)[Fuc(a1-3)[Gal(b1-4)]GlcNAc(b1-2)Man(a1-6)]Man(b1-4)GlcNAc(b1-4)GlcNAc
# Outline: as §1
# [28] = target: Fuc(a1-3)[Gal(b1-4)]GlcNAc(b1-2)Man(a1-3)[Fuc(a1-3)[Gal(b1-4)]GlcNAc(b1-2)Man(a1-6)]Man(b1-4)GlcNAc(b1-4)[Fuc(a1-6)]GlcNAc
# Outline: as §1
# [29] = target: Fuc(a1-3)[Gal(b1-4)]GlcNAc(b1-3)Gal(b1-3)[Fuc(a1-4)]GlcNAc
# Outline: as §1
# [30] = target: Fuc(a1-3)[Gal(b1-4)]GlcNAc(b1-3)Gal(b1-4)[Fuc(a1-3)]GlcNAc
# Outline: as §1
# [31] = target: Fuc(a1-3)[Gal(b1-4)]GlcNAc(b1-3)Gal(b1-4)[Fuc(a1-3)]GlcNAc(b1-3)Gal(b1-4)[Fuc(a1-3)]GlcNAc
# Outline: as §1
# [32] = target: Fuc(a1-3)[Gal(b1-4)]GlcNAc(b1-3)GalNAc
# Outline: as §1
# [33] = target: Fuc(a1-3)[Gal(b1-4)]GlcNAc(b1-6)GalNAc
# Outline: as §1
# [34] = target: Fuc(a1-3)[Gal(b1-4)]GlcNAc(b1-6)[Gal(b1-3)GlcNAc(b1-3)]Gal(b1-4)Glc
# Outline: as §1
# [35] = target: Fuc(a1-3)[Gal(b1-4)]GlcNAc6S
# Outline: as §1
# [36] = target: Fuc(a1-3)[Gal3S(b1-4)]Glc
# Outline: as §1
# [37] = target: Fuc(a1-3)[Gal3S(b1-4)]GlcNAc
# Outline: as §1
binder,measurement,setting,value
B1,glycan array binding signal (z-score),[1],1.48
same,glycan array binding signal (z-score),[2],0.118
same,glycan array binding signal (z-score),[3],-2.11
same,glycan array binding signal (z-score),[4],-0.019
same,glycan array binding signal (z-score),[5],0.099
same,glycan array binding signal (z-score),[6],-0.45
same,glycan array binding signal (z-score),[7],0.103
same,glycan array binding signal (z-score),[8],0.455
same,glycan array binding signal (z-score),[9],0.767
same,glycan array binding signal (z-score),[10],0.519
same,glycan array binding signal (z-score),[11],0.134
same,glycan array binding signal (z-score),[12],0.256
same,glycan array binding signal (z-score),[13],-0.159
same,glycan array binding signal (z-score),[14],-0.042
same,glycan array binding signal (z-score),[15],-0.5
same,glycan array binding signal (z-score),[16],0.025
same,glycan array binding signal (z-score),[17],0.319
same,glycan array binding signal (z-score),[18],0.358
same,glycan array binding signal (z-score),[19],-1.03
same,glycan array binding signal (z-score),[20],-1.21
same,glycan array binding signal (z-score),[21],0.599
same,glycan array binding signal (z-score),[22],-0.499
same,glycan array binding signal (z-score),[23],-0.192
same,glycan array binding signal (z-score),Fuc(a1-3)GlcNAc,1.42
same,glycan array binding signal (z-score),[24],2.06
same,glycan array binding signal (z-score),[25],0.584
same,glycan array binding signal (z-score),[26],1.37
same,glycan array binding signal (z-score),[27],-0.853
same,glycan array binding signal (z-score),[28],2.05
same,glycan array binding signal (z-score),[29],-0.122
same,glycan array binding signal (z-score),[30],-0.59
same,glycan array binding signal (z-score),[31],-0.584
same,glycan array binding signal (z-score),[32],-0.36
same,glycan array binding signal (z-score),[33],-0.801
same,glycan array binding signal (z-score),[34],-0.107
same,glycan array binding signal (z-score),[35],2.6
same,glycan array binding signal (z-score),[36],-1.21
same,glycan array binding signal (z-score),[37],-0.593

# Rewritten with tabs: entries from further up.
binder	measurement	setting	value
B1	glycan array binding signal (z-score)	[23]	-0.192
same	glycan array binding signal (z-score)	Fuc(a1-3)GlcNAc	1.42

# From the supplement of paper PMC8728848
